According to patent US20100267760A1, “Methods of and Combination Therapies for Treating or Delaying the Onset of Dyskinesia” (priority 2007, published 2010):
At least one compound was matched to its structure with a doubt left.

Experiments:
[1] = system: phospho-Ser240/244-S6 ribosomal protein; assay: Systemic rapamycin with L-DOPA in 6-OHDA-lesioned mice, immunofluorescence of P-S6 positive cells in dorsal striatum; type: in vivo; details: rapamycin 5 mg/kg once daily for 4 days, L-DOPA 20 mg/kg plus benserazide 12 mg/kg 1 hr after last rapamycin, P<0.0001 vs. 6-OHDA/L-DOPA
[2] = system: phospho-S6; assay: Striatal slices incubated with SKF81297 plus rapamycin, phospho-S6 by western blotting; type: cell-based; details: striatal slices from 6-OHDA-lesioned mice, 5 min incubation, SKF81297 plus rapamycin vs SKF81297, significant vs. 6-OHDA/SKF81297
[3] = system: phospho-GluR1; assay: Striatal slices incubated with SKF81297 plus rapamycin, phospho-GluR1 by western blotting; type: cell-based; details: striatal slices from 6-OHDA-lesioned mice, 5 min incubation
[4] = system: phospho-Thr202/Tyr204-ERK1/2; assay: Systemic rapamycin with L-DOPA in 6-OHDA-lesioned mice, immunofluorescence of P-ERK positive cells in dorsal striatum; type: in vivo; details: rapamycin 5 mg/kg once daily for 4 days, L-DOPA 20 mg/kg plus benserazide 12 mg/kg 1 hr after last rapamycin
[5] = system: phospho-Ser65-4E-BP; assay: Systemic rapamycin with L-DOPA in 6-OHDA-lesioned mice, striatal phospho-Ser65-4E-BP by western blotting; type: in vivo; details: systemic rapamycin 5 mg/kg plus L-DOPA 20 mg/kg, p<0.01 vs 6-OHDA/DOPA
[6] = system: phospho-4E-BP; assay: Striatal slices incubated with SKF81297 plus rapamycin, phospho-4E-BP by western blotting; type: cell-based; details: striatal slices from 6-OHDA-lesioned mice, 5 min incubation, SKF81297 plus rapamycin vs SKF81297, significant vs. 6-OHDA/SKF81297
[7] = system: phospho-ERK2; assay: Striatal slices incubated with SKF81297 plus rapamycin, phospho-ERK2 by western blotting; type: cell-based; details: striatal slices from 6-OHDA-lesioned mice, 5 min incubation

In the case of `CO[C@H]1C[C@@H]2CC[C@@H](C)[C@@](O)(O2)C(=O)C(=O)N2CCCC[C@H]2C(=O)O[C@H]([C@H](C)C[C@@H]2CC[C@@H](O)[C@H](OC)C2)CC(=O)[C@H](C)/C=C(\C)[C@@H](O)[C@@H](OC)C(=O)[C@H](C)C[C@H](C)/C=C/C=C/C=C/1C` [rapamycin], the “effect on mTOR-dependent increase in S6 phosphorylation produced in striatal MSNs by L-DOPA” value [1] is reported as “blocks”, the “effect on mTOR-dependent increase in S6 phosphorylation produced by activation of dopamine D1 receptors” value [2] is reported as “blocks” and the “effect on SKF81297-induced phosphorylation of GluR1 (not regulated by mTOR)” value [3] is reported as “absence of rapamycin effect”. The “effect on ERK activation (P-ERK positive cells) produced by L-DOPA” value [4] was “without affecting ERK activation”, the “effect on mTOR-dependent increase in 4E-BP phosphorylation produced by L-DOPA” value [5] was “blocks” and the “effect on mTOR-dependent increase in 4E-BP phosphorylation produced by activation of dopamine D1 receptors” value [6] was “blocks”. For the same compound, the “effect on SKF81297-induced phosphorylation of ERK2 (not regulated by mTOR)” value [7] was “absence of rapamycin effect”.
